Experimental data published in publication PMC11055877.
Results are given in words; binding and its absence hold for the method and conditions named. In cells and extracts the contact can be indirect. Some results given as binding are weak or reduced against the parent protein; the word gives no strength.

The chains behind the UniProt entries cited, without tags or fusion partners.
UniProt Q01094: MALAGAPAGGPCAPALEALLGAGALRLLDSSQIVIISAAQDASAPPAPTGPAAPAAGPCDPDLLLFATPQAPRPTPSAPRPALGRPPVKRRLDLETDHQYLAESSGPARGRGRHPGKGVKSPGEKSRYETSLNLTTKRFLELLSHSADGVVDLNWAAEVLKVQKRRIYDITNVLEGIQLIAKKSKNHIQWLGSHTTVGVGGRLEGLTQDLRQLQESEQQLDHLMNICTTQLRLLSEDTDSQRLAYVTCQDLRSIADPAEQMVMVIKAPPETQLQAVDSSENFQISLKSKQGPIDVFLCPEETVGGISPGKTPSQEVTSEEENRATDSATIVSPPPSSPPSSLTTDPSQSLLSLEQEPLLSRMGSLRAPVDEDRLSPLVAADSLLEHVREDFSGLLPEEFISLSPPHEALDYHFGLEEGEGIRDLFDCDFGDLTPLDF
UniProt Q16254: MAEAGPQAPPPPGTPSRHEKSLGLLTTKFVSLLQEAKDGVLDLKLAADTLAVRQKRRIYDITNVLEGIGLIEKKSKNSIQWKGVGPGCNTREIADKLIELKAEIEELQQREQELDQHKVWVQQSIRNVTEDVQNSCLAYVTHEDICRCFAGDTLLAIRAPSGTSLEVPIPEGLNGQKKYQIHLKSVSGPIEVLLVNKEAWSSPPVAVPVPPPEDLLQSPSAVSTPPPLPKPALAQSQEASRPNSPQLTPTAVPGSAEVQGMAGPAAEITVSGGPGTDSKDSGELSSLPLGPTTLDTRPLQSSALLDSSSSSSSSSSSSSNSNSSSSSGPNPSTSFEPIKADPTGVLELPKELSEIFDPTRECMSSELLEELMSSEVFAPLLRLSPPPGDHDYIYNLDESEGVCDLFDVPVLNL
UniProt Q92830: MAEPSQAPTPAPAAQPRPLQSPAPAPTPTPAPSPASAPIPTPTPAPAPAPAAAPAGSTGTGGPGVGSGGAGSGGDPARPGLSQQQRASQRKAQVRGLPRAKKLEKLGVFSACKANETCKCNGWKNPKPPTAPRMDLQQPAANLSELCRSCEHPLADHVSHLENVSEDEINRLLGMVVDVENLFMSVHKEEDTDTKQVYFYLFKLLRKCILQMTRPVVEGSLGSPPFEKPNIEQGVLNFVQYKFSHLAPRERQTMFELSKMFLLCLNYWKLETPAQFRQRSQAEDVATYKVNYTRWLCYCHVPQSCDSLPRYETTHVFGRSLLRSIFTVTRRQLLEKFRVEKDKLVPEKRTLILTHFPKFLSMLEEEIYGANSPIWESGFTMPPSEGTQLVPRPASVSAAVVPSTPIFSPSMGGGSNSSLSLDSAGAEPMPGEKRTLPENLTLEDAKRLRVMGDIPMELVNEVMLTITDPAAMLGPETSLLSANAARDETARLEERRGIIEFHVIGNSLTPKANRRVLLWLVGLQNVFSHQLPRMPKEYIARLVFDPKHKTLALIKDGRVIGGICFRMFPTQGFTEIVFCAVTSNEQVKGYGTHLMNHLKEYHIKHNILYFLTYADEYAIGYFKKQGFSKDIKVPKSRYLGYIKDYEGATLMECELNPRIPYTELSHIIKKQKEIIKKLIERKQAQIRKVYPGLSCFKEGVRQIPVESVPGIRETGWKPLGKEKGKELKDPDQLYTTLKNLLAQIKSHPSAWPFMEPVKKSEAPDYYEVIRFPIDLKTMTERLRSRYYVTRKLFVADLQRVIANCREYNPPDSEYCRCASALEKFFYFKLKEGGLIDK

Columns and labels:
[1] = target: E2F1 (human (endogenous in PDAC CSCs)) (UniProt Q01094); test: co-IP; nuclear and chromatin fractions of pancreatic CSCs (Nuclear Lysis Buffer: 50 mM Tris HCl pH 7.5, 100 mM NaCl, 50 mM KCl, 2 mM MgCl2, 1 mM EDTA, 10% glycerol, 0.3% Triton X-100; Benzonase); 5 µg cross-linked antibodies for 12 h at 4 °C; western blot; alternatively the nuclear complex co-IP kit (Active Motif)
[2] = target: E2F4 (human (endogenous in PDAC CSCs)) (UniProt Q16254); test: as above

binding [1]: binds
binding [2]: binds
Substance: GCN5 histone acetyltransferase (from UniProt Q92830 1-837) (enzyme)
